{"source": "patent US10588608B2", "about": "“Sampling systems and related materials and methods” (Progenity Inc., priority 2016, dated 2020)", "test_system": "populations of bacteria", "assay": "Chemical stabilization of bacterial cells, cell counts by flow cytometry", "type": "cell-based", "settings": "bacteria cultures seeded with preservative; cell counts over 72 hours by flow cytometry; FIG. 58", "note": "Some of these results come from one statement about several compounds together.", "data": [{"smiles": "O=C(NCO)N(CO)C1(CO)C(=O)NC(=O)N1CO", "note": "(stereo not shown) [diazolidinyl urea]", "values": [{"measurement": "time for which bacterial population growth is inhibited or preserved", "result": "at least 72 hours"}]}]}
